Results deposited as PubChem BioAssay AID1259254 (NCATS, 2017).

Assay: 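Gene knock-downs that lead to re-replication, shown by excess G2 DNA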 (primary screen)
System: human HCT116 colorectal cancer cells
Reagent: single siRNA against human genes
Duration: 3 days
Measurement: 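Imaged Hoechst DNA stain sorts each cell into a cycle phase by DNA amount; per plate, G2 fraction set to 0% for non-targeting and 100% for GMNN siRNA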
Scale: G2 robust z-score and G2 cells, % of GMNN control: higher = more G2 cells, more excess DNA replication; raw share of cells in G2: higher = larger share of cells with G2 DNA content
Active means: 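An siRNA counts as active if its G2 robust z-score lies at least 5 MADs above the screen median; here such calls match roughly 38% of GMNN control or more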
Here is an unselected part of about 59,000 reagents. About 1,550 of all reagents (2.6%) count as active. 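G2 share is only a proxy for re-replication; each gene was hit by three separate siRNAs, and active genes were retested.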 Raw values are not corrected between plates. Entries without a mark were called inactive. The numbers tell different reagents against one gene apart. The record does not give: the amount of reagent.

gene | reagent no. | G2 robust z-score | G2 cells, % of GMNN control | raw share of cells in G2 (%)
FRA10AC1 | 1 | -0.353 | 0.485 | 4.29
FRA10AC1 | 2 | -1.15 | -5.1 | 1.81
FRA10AC1 | 3 | 1.6 | 14.2 | 5.98
SESN1 | 1 | -0.735 | -2.2 | 3.01
SESN1 | 2 | 2.68 | 21.8 | 12.8
SESN1 | 3 | -0.586 | -1.15 | 2.89
TDP1 | 1 | -1.57 | -8.05 | 2.9
TDP1 | 2 | -0.312 | 0.776 | 4.72
TDP1 | 3 | -0.744 | -2.27 | 3.39
NOS1AP | 1 | -1.19 | -5.43 | 3.15
NOS1AP | 2 | -0.673 | -1.77 | 4.03
NOS1AP | 3 | -0.821 | -2.81 | 2.24
PALM | 1 | 0.432 | 6 | 7.53
PALM | 2 | -0.678 | -1.8 | 3.51
PALM | 3 | -0.933 | -3.59 | 2.06
RPS15A | 1 | 3.64 | 28.6 | 17.1
RPS15A | 2 | 4.35 | 33.6 | 17.5
RPS15A | 3 | 2.88 | 23.2 | 11.8
ACSS2 | 1 | 1.53 | 13.7 | 12.4
ACSS2 | 2 | -0.0874 | 2.35 | 5.28
ACSS2 | 3 | -0.773 | -2.47 | 3.3
NBEA | 1 | -0.319 | 0.726 | 4.13
NBEA | 2 | 8.63 (active) | 63.7 | 28.6
NBEA | 3 | -0.53 | -0.76 | 3.01

The list goes on (2 carried over from the part before).
gene | reagent no. | G2 robust z-score | G2 cells, % of GMNN control | raw share of cells in G2 (%)
NBEA | 2 | 8.63 (active) | 63.7 | 28.6
NBEA | 3 | -0.53 | -0.76 | 3.01
USP53 | 1 | -0.401 | 0.149 | 3.66
USP53 | 2 | 0.0163 | 3.08 | 5.57
USP53 | 3 | 2.79 | 22.6 | 10.7
LAMB3 | 1 | 0.713 | 7.98 | 8.58
LAMB3 | 2 | -0.494 | -0.509 | 3.26
LAMB3 | 3 | 5.96 (active) | 44.9 | 19.4
F13B | 1 | -0.813 | -2.75 | 4.01
F13B | 2 | -0.7 | -1.96 | 3.37
F13B | 3 | 1.32 | 12.3 | 8.33
IGLV5-39 | 1 | 0.434 | 6.02 | 5.94
IGLV5-39 | 2 | 1.63 | 14.4 | 8.49
IGLV5-39 | 3 | -0.0131 | 2.88 | 3.63
SLC4A3 | 1 | -1.36 | -6.63 | 1.76
SLC4A3 | 2 | 0.943 | 9.6 | 8.91
SLC4A3 | 3 | 1.31 | 12.2 | 8.73
SMARCC1 | 1 | -0.255 | 1.17 | 6.08
SMARCC1 | 2 | 0.882 | 9.18 | 7.69
SMARCC1 | 3 | -1.12 | -4.9 | 2.34
LIPE | 1 | 5 | 38.1 | 20.1
LIPE | 2 | -1.26 | -5.86 | 1.26
LIPE | 3 | -1.12 | -4.88 | 3.54
MAGEC3 | 1 | 1.79 | 15.6 | 10
MAGEC3 | 2 | 1.38 | 12.7 | 7.13
MAGEC3 | 3 | -0.665 | -1.71 | 1.96
